PubChem BioAssay AID743454 | Peter MacCallum Cancer Centre, 2014
Aim: 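Search for knock-downs that restore vorinostat killing in resistant colon cancer cells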 (primary screen). Cell system: human HCT116-VR colon cancer cells, selected for vorinostat resistance. Reagent: siRNA pool against human genes, 40 nM siRNA pool. Duration: vorinostat for 24 h, read-out about 72 h after transfection. Treatment: vorinostat at 2.5 µM final. Detection: 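Cell viability by CellTiter-Fluor and caspase 3/7 activity by luminescence, each scaled to mock wells per plate, duplicates averaged, then robust z-scored over all plates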. Reading the numbers: viability robust z-score: higher = more viable cells than screen typical; caspase robust z-score: higher = more caspase 3/7 activity than screen typical. Hit rule: 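a knock-down is a hit when classed RV1 or RV2 for lowered viability, or CA1 or CA2 for caspase activation; those lethal without drug were dropped; hits were retested singly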.
The whole screen tested about 18,000 reagents; shown is an unselected part. Of all reagents, 450 (2.5%) got an active call. 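Single biological run; no consistent viability z cut-off exists, so the class columns, not z-scores, define the calls.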 The numbers tell different reagents against one gene apart.

| target | reagent no. | viability hit class | caspase hit class | viability robust z-score | caspase robust z-score | Call |
| --- | --- | --- | --- | --- | --- | --- |
| PRPSAP1 (phosphoribosyl pyrophosphate synthetase associated protein 1) | 1 | no change | no change | -0.36 | -0.55 | inactive |
| IL10RB (interleukin 10 receptor subunit beta) | 1 | no change | no change | 0.1 | -0.16 | inactive |
| PTP4A3 (protein tyrosine phosphatase 4A3) | 1 | no change | no change | 0.48 | 1.33 | inactive |
| ILK (integrin linked kinase) | 1 | no change | no change | 0.2 | -0.48 | inactive |
| ILK (integrin linked kinase) | 2 | no change | no change | -1.58 | -0.46 | inactive |
| SSU72 (SSU72 homolog, RNA polymerase II CTD phosphatase) | 1 | no change | no change | -0.1 | 0.04 | inactive |
| PFDN2 (prefoldin subunit 2) | 1 | no change | no change | 0.78 | 0.6 | inactive |
| TMCC3 (transmembrane and coiled-coil domain family 3) | 1 | no change | no change | -0.5 | 1.72 | inactive |
| SPIN3 (spindlin family member 3) | 1 | no change | no change | -0.52 | -0.18 | inactive |
| MYOM3 (myomesin 3) | 1 | no change | no change | 0.89 | 0.62 | inactive |
| COPRS (coordinator of PRMT5 and differentiation stimulator) | 1 | no change | no change | -0.03 | 2.73 | inactive |
| MYL5 (myosin light chain 5) | 1 | no change | no change | -0.96 | -0.74 | inactive |
| FSCN2 (fascin actin-bundling protein 2, retinal) | 1 | no change | no change | 0.26 | -0.56 | inactive |
| STRIP1 (striatin interacting protein 1) | 1 | no change | no change | 0.94 | -0.41 | inactive |
| LAPTM4A (lysosomal protein transmembrane 4 alpha) | 1 | no change | no change | -1.79 | 1.54 | inactive |
| LEFTY2 (left-right determination factor 2) | 1 | no change | no change | 1.99 | 0.37 | inactive |
| SLC6A11 | 1 | no change | no change | -0.26 | 0.7 | inactive |
| CDC25B (cell division cycle 25B) | 1 | no change | no change | 0.12 | -0.14 | inactive |
| TPCN2 (two pore segment channel 2) | 1 | no change | no change | -2.1 | 0.47 | inactive |
| DAGLB (diacylglycerol lipase beta) | 1 | no change | no change | 0.52 | -0.7 | inactive |
| FN1 (fibronectin 1) | 1 | no change | no change | 0.54 | -0.34 | inactive |
| NUP43 (nucleoporin 43) | 1 | no change | no change | 0 | 0.06 | inactive |
| IFI16 (interferon gamma inducible protein 16) | 1 | no change | no change | 0.38 | 1.43 | inactive |
| SLC6A2 | 1 | no change | no change | -1.15 | 4.97 | inactive |
| UFM1 (ubiquitin fold modifier 1) | 1 | no change | no change | 1.23 | -0.21 | inactive |
| SNRPD3 (small nuclear ribonucleoprotein D3 polypeptide) | 1 | no change | no change | -3.25 | -0.65 | inactive |
| C9orf72 (C9orf72-SMCR8 complex subunit) | 1 | no change | no change | 0.36 | -1.06 | inactive |
| ACSBG2 (acyl-CoA synthetase bubblegum family member 2) | 1 | no change | no change | 0.94 | 0 | inactive |
| SCAMP4 | 1 | no change | no change | 0.82 | 2.5 | inactive |
| ZNF84 (zinc finger protein 84) | 1 | no change | no change | 1.24 | 0.11 | inactive |
| FOXF2 (forkhead box F2) | 1 | no change | no change | 1.58 | -0.09 | inactive |
| CKS1B (CDC28 protein kinase regulatory subunit 1B) | 1 | no change | no change | -0.05 | -0.74 | inactive |
| CIMAP1A (ciliary microtubule associated protein 1A) | 1 | no change | no change | 0.24 | -0.97 | inactive |
| OR52A5 (olfactory receptor family 52 subfamily A member 5) | 1 | no change | no change | 0.13 | -0.06 | inactive |
| TMEM170A (transmembrane protein 170A) | 1 | no change | no change | 2.25 | -0.76 | inactive |
| GPR37 (G protein-coupled receptor 37) | 1 | no change | no change | 0.06 | -1.2 | inactive |
| RALB (RAS like proto-oncogene B) | 1 | no change | no change | -4.42 | -1.25 | inactive |
| GPBP1 (GC-rich promoter binding protein 1) | 1 | no change | no change | 0.34 | -0.28 | inactive |
| IMPG2 (interphotoreceptor matrix proteoglycan 2) | 1 | no change | no change | 0.03 | -0.44 | inactive |
| ZDHHC22 (zDHHC palmitoyltransferase 22) | 1 | no change | no change | 0.36 | 1.1 | inactive |
| PRR3 (proline rich 3) | 1 | no change | no change | 0.36 | -0.61 | inactive |
| PRTFDC1 (phosphoribosyl transferase domain containing 1) | 1 | no change | no change | 0.62 | -0.66 | inactive |
| PZP (PZP alpha-2-macroglobulin like) | 1 | no change | no change | 0.05 | 3.05 | inactive |
| ATG2A (autophagy related 2A) | 1 | no change | no change | 0.63 | -0.5 | inactive |
| XPO7 (exportin 7) | 1 | no change | no change | 0.7 | 0.37 | inactive |
| SYNJ2 (synaptojanin 2) | 1 | no change | no change | -0.18 | 0.82 | inactive |
| VASH1 (vasohibin 1) | 1 | no change | no change | -0.16 | -0.7 | inactive |
| DRAXIN (dorsal inhibitory axon guidance protein) | 1 | no change | no change | 1.94 | 0.01 | inactive |
| H3C1 (H3 clustered histone 1) | 1 | no change | no change | 0.54 | -0.9 | inactive |
| OVCA2 (OVCA2 serine hydrolase domain containing) | 1 | no change | no change | 0.35 | -0.62 | inactive |
| AXIN1 (axin 1) | 1 | no change | no change | 0.96 | -0.42 | inactive |
| LYRM1 (LYR motif containing 1) | 1 | no change | no change | 0.35 | -0.73 | inactive |
| GPR21 (G protein-coupled receptor 21) | 1 | no change | no change | 0.7 | -1 | inactive |
| EPG5 (ectopic P-granules 5 autophagy tethering factor) | 1 | no change | no change | -0.26 | 2.12 | inactive |
| LYPD5 (LY6/PLAUR domain containing 5) | 1 | no change | no change | 0.32 | 0.57 | inactive |
| NINJ2 (ninjurin 2) | 1 | no change | no change | -0.18 | -0.76 | inactive |
| PRDM10 (PR/SET domain 10) | 1 | no change | no change | 1.07 | -0.24 | inactive |

Laid out differently: results already given
{"target":"LEFTY2 (left-right determination factor 2)","reagent no.":1,"viability hit class":"no change","caspase hit class":"no change","viability robust z-score":1.99,"caspase robust z-score":0.37,"Call":"inactive"}
{"target":"SLC6A11","reagent no.":1,"viability hit class":"no change","caspase hit class":"no change","viability robust z-score":-0.26,"caspase robust z-score":0.7,"Call":"inactive"}
{"target":"CDC25B (cell division cycle 25B)","reagent no.":1,"viability hit class":"no change","caspase hit class":"no change","viability robust z-score":0.12,"caspase robust z-score":-0.14,"Call":"inactive"}
